Test results published in article PMC5129563.

What was measured:
[1] = biological target: T1, ɛ‐sarcoglycan (rat, endogenous; all isoforms caught by the pan antibody esg‐4990) (rat (endogenous in brain and heart)) (UniProt Q6YAT4); assay: affinity purification with mass spectrometry; esg‐4990‐conjugated protein A agarose beads, rat brain solubilized in RIPA buffer, 4 °C; Coomassie bands between 55 and 25 kDa excised; protein A bead control
T1 sequence: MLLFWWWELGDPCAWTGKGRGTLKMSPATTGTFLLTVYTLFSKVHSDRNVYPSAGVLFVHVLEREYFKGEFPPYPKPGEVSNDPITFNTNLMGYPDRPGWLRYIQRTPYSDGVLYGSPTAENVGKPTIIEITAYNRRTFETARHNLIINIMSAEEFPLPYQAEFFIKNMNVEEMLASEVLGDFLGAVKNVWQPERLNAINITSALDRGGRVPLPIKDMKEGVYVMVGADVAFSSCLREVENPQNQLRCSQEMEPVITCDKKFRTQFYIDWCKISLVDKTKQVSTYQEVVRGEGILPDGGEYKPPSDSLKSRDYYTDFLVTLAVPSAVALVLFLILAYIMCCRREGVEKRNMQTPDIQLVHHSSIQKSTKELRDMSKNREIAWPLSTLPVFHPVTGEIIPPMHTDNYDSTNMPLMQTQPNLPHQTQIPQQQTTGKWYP

[2] = biological target: T1, ɛ‐sarcoglycan (rat, endogenous; all isoforms caught by the pan antibody esg‐4990) (rat (endogenous in brain and heart)); assay: affinity purification with mass spectrometry; esg‐4990‐conjugated protein A agarose beads, rat heart solubilized in RIPA buffer, 4 °C; Coomassie bands excised; protein A bead control

| binding [1] | binding [2] | Substance |
| --- | --- | --- |
| binds | binds | γ‐sarcoglycan (rat, endogenous) |
| binds | binds | δ‐sarcoglycan (rat, endogenous) |
| binds | – | ζ‐sarcoglycan (rat, endogenous) |
| binds | binds | β‐sarcoglycan (rat, endogenous) |

Results are given in words; binding and its absence hold for the method and conditions named. Binding seen in cells or lysates may run through a third protein. A yes stands for co-enrichment or nearness to the bait. Other partners may have been found.
